Some entries share one result that the patent states for a list of compounds.
Test system: xxLAI strain of HIV-1
Assay type: cell-based
Conditions: MT2 cells, control vs with 0.25 μM MPA (fold decrease)
Experimental: Triplicate samples of compound were tested. MT2 cells were infected with xxLAI at a multiplicity of infection (MOI) of 0.03 for 3 hours at 37° C. in 5% CO2. The infected cells were plated at 3.0×10^4/well into a 96 well plated containing drug dilutions and incubated for 5 days at 37° C. in CO2. […] This method has been modified into a susceptibility assay and has been used in a variety of in vitro antiviral tests and is readily adaptable to any system with a lytic virus (Weislow, O. S., et. al. 1989). Using the absorption values of the cell controls as 100% protection and no drug, virus infected cells as 0% protection, a dose response curve is generated by plotting % protection on the Y axis and drug concentration on the X axis. From this curve EC50 values were determined.
Assays were performed in the MT2 cell line as described above in the XXT sensitivity assay section.
MPA was tested for activity against the xxLAI strain of HIV-1 in the laboratory adapted cell line MT2. […] The antiviral activity of MPA was determined using the XTT assay described above. This method has been modified into a susceptibility assay and has been used in a variety of in vitro antiviral tests and is readily adaptable to any system with a lytic virus (Weislow, O. S., et. al. 1989). […] From this curve EC50 values were determined. […]

Nc1nc(NC2CC2)c2ncn([C@H]3C=C[C@@H](CO)C3)c2n1 [Abacavir]
Fold difference in EC50, 0.25 μM MPA: < 2 fold

Source: patent US20020173491A1, “DAPD combination therapy with inosine monophosphate dehydrogenase inhibitor” (priority 2000, published 2002)
